In article PMC5630695 one finds binding data, which are given here for 2 molecules.

The chains behind the UniProt entries cited, without tags or fusion partners. Residues count along the entry.
UniProt P25025, residues 1-43: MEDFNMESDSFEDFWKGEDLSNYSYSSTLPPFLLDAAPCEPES

These are yes or no findings as the source states them, for the method shown. Some binding calls cover weakened binding; strength is not graded here.

The target in assay [1] is T1, CXCL7 WT (neutrophil-activating peptide 2) (UniProt P02775).
T1 sequence: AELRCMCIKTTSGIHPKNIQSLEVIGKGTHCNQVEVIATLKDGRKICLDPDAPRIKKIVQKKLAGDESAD
In words: condition: only CXCL7 bound to heparin dp26; N-domain peptide up to a 1:7 M ratio; NMR titration; 1H-15N HSQC; CXCR2 N-domain peptide titrated into the CXCL7:heparin dp26 complex up to a 1:7 molar ratio; both purified.

Assay [2] deals with T1, CXCL7 WT (neutrophil-activating peptide 2). Description: NMR titration; 1H-15N HSQC; 320 uM CXCR2 N-domain titrated into 77 uM WT CXCL7, 50 mM phosphate pH 6.0, 35 C; final molar ratio CXCL7:N-domain 1:3.5; monomer and dimer peaks tracked together; both purified.
The target is the same in assay [3]. Description: 1H-15N HSQC NMR (monomer and dimer peaks); WT CXCL7 at 77-120 uM, 50 mM phosphate pH 6.0, 35 C; monomer to dimer; free and on titration with heparin dp26 (up to 1:4), which shifts the population to the dimer; both purified.

“recombinant CXCR2 N-terminal domain (N-domain) (residues 1-43) peptide (from UniProt P25025 1-43) (domain or fragment)”: the binding entry in assay [1] is “no binding”; in assay [2], “binds”.

B1: CXCL7 WT (neutrophil-activating peptide 2) (ligand, UniProt P02775 59-128)
chain: T1 sequence
Regarding B1, the binding result in assay [3] is on record as “binds weakly”.
